Source: ChEMBL document CHEMBL4316593 (Eur J Med Chem, 2019)
The source gives many values for each of these; only a part stands here.

Legend:
Type in all cases: cell-based
Conditions in all cases: U-87MG ATCC
[1] = Inhibition of RTK/PI3K/AKT/mTOR signaling in human U87 cells assessed as down regulation of OSBPL6 gene expression at cytotoxic IC50 measured after 48 hrs relative to control
[2] = Inhibition of RTK/PI3K/AKT/mTOR signaling in human U87 cells assessed as up regulation of RANBP2-type and C3HC4-type zinc finger containing 1 gene expression at cytotoxic IC50 measured after 48 hrs relative to control
[3] = Inhibition of RTK/PI3K/AKT/mTOR signaling in human U87 cells assessed as down regulation of ENC1 gene expression at cytotoxic IC50 measured after 48 hrs relative to control
[4] = Inhibition of RTK/PI3K/AKT/mTOR signaling in human U87 cells assessed as up regulation of aldehyde dehydrogenase 3 family member B1 gene expression at cytotoxic IC50 measured after 48 hrs relative to control
[5] = Inhibition of RTK/PI3K/AKT/mTOR signaling in human U87 cells assessed as up regulation of cyclin dependent kinase 18 gene expression at cytotoxic IC50 measured after 48 hrs relative to control
[6] = Inhibition of RTK/PI3K/AKT/mTOR signaling in human U87 cells assessed as up regulation of squalene epoxidase gene expression at cytotoxic IC50 measured after 48 hrs relative to control
[7] = Inhibition of RTK/PI3K/AKT/mTOR signaling in human U87 cells assessed as down regulation of MINPP1 gene expression at cytotoxic IC50 measured after 48 hrs relative to control
[8] = Inhibition of RTK/PI3K/AKT/mTOR signaling in human U87 cells assessed as up regulation of TMEM230 gene expression at cytotoxic IC50 measured after 48 hrs relative to control
[9] = Inhibition of RTK/PI3K/AKT/mTOR signaling in human U87 cells assessed as down regulation of GNA13 gene expression at cytotoxic IC50 measured after 48 hrs relative to control
[10] = Inhibition of RTK/PI3K/AKT/mTOR signaling in human U87 cells assessed as down regulation of AUNIP gene expression at cytotoxic IC50 measured after 48 hrs relative to control
[11] = Inhibition of RTK/PI3K/AKT/mTOR signaling in human U87 cells assessed as up regulation of glycogen phosphorylase L gene expression at cytotoxic IC50 measured after 48 hrs relative to control
[12] = Inhibition of RTK/PI3K/AKT/mTOR signaling in human U87 cells assessed as up regulation of CAVIN1 gene expression at cytotoxic IC50 measured after 48 hrs relative to control
[13] = Inhibition of RTK/PI3K/AKT/mTOR signaling in human U87 cells assessed as up regulation of AT-rich interaction domain 3A gene expression at cytotoxic IC50 measured after 48 hrs relative to control
[14] = Inhibition of RTK/PI3K/AKT/mTOR signaling in human U87 cells assessed as up regulation of casein kinase 1 gamma 2 gene expression at cytotoxic IC50 measured after 48 hrs relative to control
[15] = Inhibition of RTK/PI3K/AKT/mTOR signaling in human U87 cells assessed as down regulation of FAM120AOS gene expression at cytotoxic IC50 measured after 48 hrs relative to control
[16] = Inhibition of RTK/PI3K/AKT/mTOR signaling in human U87 cells assessed as up regulation of integrin subunit alpha 5 gene expression at cytotoxic IC50 measured after 48 hrs relative to control
[17] = Inhibition of RTK/PI3K/AKT/mTOR signaling in human U87 cells assessed as down regulation of SUPT4H1 gene expression at cytotoxic IC50 measured after 48 hrs relative to control
[18] = Inhibition of RTK/PI3K/AKT/mTOR signaling in human U87 cells assessed as down regulation of TACC1 gene expression at cytotoxic IC50 measured after 48 hrs relative to control
[19] = Inhibition of RTK/PI3K/AKT/mTOR signaling in human U87 cells assessed as down regulation of KCTD10 gene expression at cytotoxic IC50 measured after 48 hrs relative to control
[20] = Inhibition of RTK/PI3K/AKT/mTOR signaling in human U87 cells assessed as down regulation of BCL6 gene expression at cytotoxic IC50 measured after 48 hrs relative to control
[21] = Inhibition of RTK/PI3K/AKT/mTOR signaling in human U87 cells assessed as up regulation of ACBD4 gene expression at cytotoxic IC50 measured after 48 hrs relative to control
[22] = Inhibition of RTK/PI3K/AKT/mTOR signaling in human U87 cells assessed as up regulation of SERPINA5 gene expression at cytotoxic IC50 measured after 48 hrs relative to control
[23] = Inhibition of RTK/PI3K/AKT/mTOR signaling in human U87 cells assessed as up regulation of C2CD4C gene expression at cytotoxic IC50 measured after 48 hrs relative to control
[24] = Inhibition of RTK/PI3K/AKT/mTOR signaling in human U87 cells assessed as down regulation of WRAP53 gene expression at cytotoxic IC50 measured after 48 hrs relative to control
[25] = Inhibition of RTK/PI3K/AKT/mTOR signaling in human U87 cells assessed as up regulation of nuclear prelamin A recognition factor gene expression at cytotoxic IC50 measured after 48 hrs relative to control
[26] = Inhibition of RTK/PI3K/AKT/mTOR signaling in human U87 cells assessed as up regulation of SSBP4 gene expression at cytotoxic IC50 measured after 48 hrs relative to control
[27] = Inhibition of RTK/PI3K/AKT/mTOR signaling in human U87 cells assessed as down regulation of ZNF777 gene expression at cytotoxic IC50 measured after 48 hrs relative to control
[28] = Inhibition of RTK/PI3K/AKT/mTOR signaling in human U87 cells assessed as down regulation of TUBG1 gene expression at cytotoxic IC50 measured after 48 hrs relative to control
[29] = Inhibition of RTK/PI3K/AKT/mTOR signaling in human U87 cells assessed as down regulation of NKX3-1 gene expression at cytotoxic IC50 measured after 48 hrs relative to control
[30] = Inhibition of RTK/PI3K/AKT/mTOR signaling in human U87 cells assessed as down regulation of GCNT1 gene expression at cytotoxic IC50 measured after 48 hrs relative to control
[31] = Inhibition of RTK/PI3K/AKT/mTOR signaling in human U87 cells assessed as down regulation of AKAP13 gene expression at cytotoxic IC50 measured after 48 hrs relative to control
[32] = Inhibition of RTK/PI3K/AKT/mTOR signaling in human U87 cells assessed as up regulation of pleckstrin and Sec7 domain containing 3 gene expression at cytotoxic IC50 measured after 48 hrs relative to control

Question: With `CC(=O)C(=NNc1ccccc1C#N)C(C)=O` as the molecule, how does the log2FC [1] read?
Answer: Its log2FC is -0.841.

Question: What about the log2FC [2] of the same molecule?
Answer: Its log2FC is 1.14.

Question: And the log2FC [3]?
Answer: The log2FC was -0.748.

Question: What about the log2FC [4] of the same molecule?
Answer: The log2FC was 0.946.

Question: And the log2FC [5]?
Answer: Its log2FC is 1.04.

Question: What about the log2FC [6] of the same molecule?
Answer: Its log2FC is 0.797.

Question: And the log2FC [7]?
Answer: Its log2FC is -1.37.

Question: And the log2FC [8]?
Answer: The log2FC was 0.605.

Question: What about the log2FC [9] of the same molecule?
Answer: Its log2FC is -0.483.

Question: And the log2FC [10]?
Answer: The log2FC was -1.3.

Question: And the log2FC [11]?
Answer: Its log2FC is 0.716.

Question: What about the log2FC [12] of the same molecule?
Answer: The log2FC was 0.555.

Question: What about the log2FC [13] of the same molecule?
Answer: Its log2FC is 0.708.

Question: What about the log2FC [14] of the same molecule?
Answer: The log2FC was 0.834.

Question: What about the log2FC [15] of the same molecule?
Answer: Its log2FC is -0.687.

Question: What about the log2FC [16] of the same molecule?
Answer: The log2FC was 0.936.

Question: And the log2FC [17]?
Answer: The log2FC was -0.744.

Question: And the log2FC [18]?
Answer: The log2FC was -0.697.

Question: What about the log2FC [19] of the same molecule?
Answer: The log2FC was -0.869.

Question: What about the log2FC [20] of the same molecule?
Answer: Its log2FC is -0.748.

Question: What about the log2FC [21] of the same molecule?
Answer: Its log2FC is 1.69.

Question: And the log2FC [22]?
Answer: Its log2FC is 2.35.

Question: And the log2FC [23]?
Answer: Its log2FC is 1.95.

Question: And the log2FC [24]?
Answer: Its log2FC is -0.835.

Question: And the log2FC [25]?
Answer: Its log2FC is 0.804.

Question: What about the log2FC [26] of the same molecule?
Answer: Its log2FC is 1.83.

Question: What about the log2FC [27] of the same molecule?
Answer: Its log2FC is -0.845.

Question: What about the log2FC [28] of the same molecule?
Answer: The log2FC was -0.71.

Question: What about the log2FC [29] of the same molecule?
Answer: The log2FC was -1.4.

Question: And the log2FC [30]?
Answer: The log2FC was -2.24.

Question: And the log2FC [31]?
Answer: Its log2FC is -0.656.

Question: What about the log2FC [32] of the same molecule?
Answer: The log2FC was 0.865.
